The test concerns the target Rrp42 protein of P. abyssi, characterised individually (Pyrococcus abyssi) (UniProt Q9V118). Kind of test: gel filtration of Rrp42 alone (self-association).

No constants are given. Whether binding was seen depends on the method and setting. Some binding calls cover weakened binding; strength is not graded here.

In US20180135060A1 (OURO FINO SAUDE ANIMAL LTDA, published 2018) one finds binding data, which are given here for one molecule.

B1: Rrp42 protein of P. abyssi, characterised individually (protein, Pyrococcus abyssi, UniProt Q9V118 1-274, looked up)
chain: MSDNEIVAGIMRDHIINLLKEGKRIDDRGFEDYRPIEIEVGVIEKAEGSALVKLGSTQVLVGIKTSLGEPFPDTPNMGVMTTNVELVPLASPTFEPGPPDERAIELARVIDRGIRESKALNLEKMVIVPGKIVRVVFIDVHVLDHDGNLMDAIGIAAIAALLNARVPKVRYNEETGEVETLDETEPLPVEKIPVPVTFAKIGNILVVDPSLDEELVMDGKITITTDETGHISAVQKSEGGAFKLEEVMYAVETAFKKAEEIRKLILEAVEKAKQ
For the molecule B1, the binding entry was “binds”.
